± gives the uncertainty stated by the source. Many of these values have a large error.
Assay: self-splicing fitness, log relative to wild type (ln ratio); higher = more splicing; Tetrahymena group I intron in knt gene, E. coli kanamycin selection, DiMSum; sequences stand for … in CUCUCU…GGAGGGAAAAGUUAUCAGGCAUGCACCUGGUAGCUAGUCUUUAAACCAAUAGAUUGCAUCGGUUUAAAAGGCAAGACCGUCAAAUUGCGGGAAAGGGGUCAACAGCCGUUCAGUACCAAGUCUCAGGGGAAACUUUGAGAUGGCCUUGCAAAGGGUAUGGUAAUAAGCUGACGGACAUGGUCCUAACCACGCAGCCAAGUCCUAAGUCAACAGAUCUUCUGUUGAUAUGGAUGCAGUUCACAGACUAAAUGUCGGUCGGGGAAGAUGUAUUCUUCUCAUAAGAUAUAGUCGGACCUCUCCUUAAUGGGAGCUAGCGGAUGAAGUGAUGCAACACUGGAGCCGCUGGGAACUAAUUUGUAUGCGAAAGUAUAUUGAUUAGUUUUGGAGUACUCGUGGUCG
Summary of the method: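 DiMSum derived fitness as the error-weighted combination of fold changes across replicates, kanamycin versus no kanamycin, normalised to wild type. E. coli BL21(DE3) held the library, which randomised all eight P1ex-region intron nucleotides within the knt kanamycin-resistance gene on pET-22b(+). Six replicate transformations grew overnight at 37°C or 30°C on LB agar with or without 25 μg/mL kanamycin, also containing 100 μg/mL carbenicillin, 50 μM IPTG and 0.2% rhamnose, and pooled colonies were amplicon-sequenced on an Illumina HiSeq 2500.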

Sequence	self-splicing fitness (ln) (30 °C)	self-splicing fitness (ln) (37 °C)
UUUCAGCAAUAUUACGUUGA	-3.22 ± 0.6	–
UAGGAGCAAUAUUACGCAGG	–	-2.92 ± 0.61
UAAGAGCAAUAUUACGCAGU	-3.51 ± 0.6	–
UCGGAGCAAUAUUACGGGGU	–	-3.21 ± 0.73
GUGGAGCAAUAUUACGAUUG	–	-1.47 ± 0.55
AAUGAGCAAUAUUACGCUUC	-5.23 ± 0.58	–
GGUCAGCAAUAUUACGGACU	–	-1.14 ± 0.82
UUUUAGCAAUAUUACGCUAU	-4.46 ± 0.72	-3.43 ± 0.52
UGUUAGCAAUAUUACGCCGC	–	-3.19 ± 0.74
GUAAAGCAAUAUUACGCCAC	-5.73 ± 1	–
GGGAAGCAAUAUUACGAUAG	–	-3.25 ± 0.74
CUCAAGCAAUAUUACGCUCG	-4.05 ± 0.51	–
UUUGAGCAAUAUUACGCACC	–	-0.402 ± 0.57
CGGGAGCAAUAUUACGAAUC	-3.86 ± 0.52	–
GGUUAGCAAUAUUACGUAGA	-0.641 ± 0.76	0.265 ± 0.55
AAGUAGCAAUAUUACGAGAG	-3.09 ± 0.22	-1.05 ± 0.21
GCUUAGCAAUAUUACGGUUA	-0.517 ± 0.11	-0.548 ± 0.11
UAGUAGCAAUAUUACGAAAC	-4.04 ± 0.74	–
UAGCAGCAAUAUUACGGCCC	-2.71 ± 1.1	–
AAGGAGCAAUAUUACGCAUA	–	-1.95 ± 0.69
UAGGAGCAAUAUUACGGCUC	–	-2.72 ± 0.75
AGGCAGCAAUAUUACGGCUG	–	-2.51 ± 0.75
UCGUAGCAAUAUUACGUUGC	–	-2.25 ± 0.55
AGUGAGCAAUAUUACGAAUA	-3.93 ± 0.61	–
CUUGAGCAAUAUUACGCCCG	–	-2.25 ± 0.78
GCGGAGCAAUAUUACGGCCC	-1.82 ± 0.63	–

Single records, as listed above. Values in the order: self-splicing fitness (ln) (30 °C)	self-splicing fitness (ln) (37 °C)
GCUUAGCAAUAUUACGGUUA is listed as -0.517 ± 0.11	-0.548 ± 0.11
GUAAAGCAAUAUUACGCCAC is listed as -5.73 ± 1	–

Continuation.

Sequence	self-splicing fitness (ln) (30 °C)	self-splicing fitness (ln) (37 °C)
CUCCAGCAAUAUUACGCCCC	–	-1.42 ± 0.59
UGCCAGCAAUAUUACGCUUC	-3.19 ± 0.23	-1.86 ± 0.22
CAAGAGCAAUAUUACGACUG	-1.57 ± 0.12	-1.19 ± 0.19
GGUAAGCAAUAUUACGCAAC	-1.08 ± 0.67	–
UUCGAGCAAUAUUACGUACC	-3 ± 0.62	-1.29 ± 0.58
CAAUAGCAAUAUUACGUGGG	-3.7 ± 0.15	-3.49 ± 0.21
AUUGAGCAAUAUUACGUGUC	-4.77 ± 0.26	-2.53 ± 0.15
UACAAGCAAUAUUACGCAGC	-4 ± 0.42	-2.63 ± 0.39
AAAGAGCAAUAUUACGUCAA	-3.31 ± 0.18	-2.61 ± 0.19
GAAGAGCAAUAUUACGGCAA	-2.67 ± 0.78	–
GAGUAGCAAUAUUACGUAGC	–	-3.23 ± 0.6
AGUGAGCAAUAUUACGCAAA	-2.62 ± 1.1	–
CGUAAGCAAUAUUACGGGCU	-4.47 ± 0.72	–
UUUUAGCAAUAUUACGGUAC	-3.83 ± 0.73	-2.54 ± 1.1
ACGAAGCAAUAUUACGAGCC	-4.9 ± 0.59	-3.11 ± 0.6
CUUGAGCAAUAUUACGCCCU	-4.7 ± 0.59	–
CUUUAGCAAUAUUACGUACA	–	-3.01 ± 0.53
CUUCAGCAAUAUUACGGCCC	–	-2.72 ± 0.63
CAUAAGCAAUAUUACGGGAG	-1.96 ± 0.097	-1.14 ± 0.095
GGAAAGCAAUAUUACGAAAA	–	-2.72 ± 0.53
CGCUAGCAAUAUUACGUGAC	-5.2 ± 1	–
ACAGAGCAAUAUUACGCCUG	-2.47 ± 1.1	–
AUUGAGCAAUAUUACGAUAA	-4.21 ± 0.6	–
AUGUAGCAAUAUUACGGUCG	-1.44 ± 0.12	-1.59 ± 0.17
UAUGAGCAAUAUUACGAUUC	-3.97 ± 1	–
